Paper PMC10709384
These are yes or no findings as the source states them, for the method shown. Some entries that bind do so weakly or less than the wild type.

Amino acid sequences for entries named in this document (tags omitted).
UniProt P22579: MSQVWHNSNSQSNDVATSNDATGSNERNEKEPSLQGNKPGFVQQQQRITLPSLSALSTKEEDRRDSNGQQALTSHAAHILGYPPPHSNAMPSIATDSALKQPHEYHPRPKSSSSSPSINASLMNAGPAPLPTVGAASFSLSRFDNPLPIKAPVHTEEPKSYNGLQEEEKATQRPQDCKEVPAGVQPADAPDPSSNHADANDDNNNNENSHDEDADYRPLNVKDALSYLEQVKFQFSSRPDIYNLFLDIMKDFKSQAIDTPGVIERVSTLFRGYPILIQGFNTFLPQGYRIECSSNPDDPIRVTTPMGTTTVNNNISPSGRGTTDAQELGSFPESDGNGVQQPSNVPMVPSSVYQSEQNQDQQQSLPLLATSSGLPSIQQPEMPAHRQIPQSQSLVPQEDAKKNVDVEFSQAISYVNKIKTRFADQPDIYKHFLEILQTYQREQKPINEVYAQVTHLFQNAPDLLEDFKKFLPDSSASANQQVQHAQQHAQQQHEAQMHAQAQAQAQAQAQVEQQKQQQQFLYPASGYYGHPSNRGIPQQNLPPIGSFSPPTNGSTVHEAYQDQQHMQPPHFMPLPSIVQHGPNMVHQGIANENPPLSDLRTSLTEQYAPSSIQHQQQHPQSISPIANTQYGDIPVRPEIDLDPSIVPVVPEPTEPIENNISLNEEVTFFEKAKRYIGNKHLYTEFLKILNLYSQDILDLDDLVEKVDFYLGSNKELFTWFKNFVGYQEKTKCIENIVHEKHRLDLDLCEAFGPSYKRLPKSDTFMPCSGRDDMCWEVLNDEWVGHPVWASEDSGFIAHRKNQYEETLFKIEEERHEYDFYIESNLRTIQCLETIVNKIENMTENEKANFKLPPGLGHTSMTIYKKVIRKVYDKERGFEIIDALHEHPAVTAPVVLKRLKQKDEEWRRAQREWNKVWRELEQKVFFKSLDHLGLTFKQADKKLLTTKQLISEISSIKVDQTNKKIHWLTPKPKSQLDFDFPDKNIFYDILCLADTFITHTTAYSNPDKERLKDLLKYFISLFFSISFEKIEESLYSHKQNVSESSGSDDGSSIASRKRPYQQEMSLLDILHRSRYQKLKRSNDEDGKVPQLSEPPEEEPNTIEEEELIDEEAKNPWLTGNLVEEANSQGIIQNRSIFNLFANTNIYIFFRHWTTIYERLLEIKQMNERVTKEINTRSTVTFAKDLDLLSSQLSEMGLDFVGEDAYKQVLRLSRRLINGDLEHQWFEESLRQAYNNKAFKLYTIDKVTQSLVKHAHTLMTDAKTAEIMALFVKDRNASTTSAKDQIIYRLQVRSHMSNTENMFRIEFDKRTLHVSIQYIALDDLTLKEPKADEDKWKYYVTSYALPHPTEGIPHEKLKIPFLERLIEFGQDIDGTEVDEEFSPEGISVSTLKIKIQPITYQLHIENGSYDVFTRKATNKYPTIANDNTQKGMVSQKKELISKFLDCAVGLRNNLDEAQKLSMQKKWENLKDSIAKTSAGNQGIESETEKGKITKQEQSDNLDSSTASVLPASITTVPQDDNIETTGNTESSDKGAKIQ
UniProt Q12432: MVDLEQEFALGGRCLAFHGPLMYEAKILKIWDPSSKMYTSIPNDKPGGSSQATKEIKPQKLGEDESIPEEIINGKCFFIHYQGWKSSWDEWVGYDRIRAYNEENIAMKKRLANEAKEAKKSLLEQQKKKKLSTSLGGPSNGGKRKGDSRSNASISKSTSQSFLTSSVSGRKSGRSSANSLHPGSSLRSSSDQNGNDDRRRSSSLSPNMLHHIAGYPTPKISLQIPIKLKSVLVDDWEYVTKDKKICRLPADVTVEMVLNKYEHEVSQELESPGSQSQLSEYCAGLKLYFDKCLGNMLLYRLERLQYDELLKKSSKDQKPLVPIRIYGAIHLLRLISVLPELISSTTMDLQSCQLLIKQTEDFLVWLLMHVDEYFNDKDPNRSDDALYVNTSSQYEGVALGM

How the values were obtained:
Assay in all cases: cryo-EM structure; nucleosome (0.9 µM) and Rpd3S (1.8 µM) mixed on ice for 1 h in 50 mM NaCl, 20 mM Na-HEPES pH 7.4, 1 mM TCEP, 4% glycerol; Superose 6 Increase 3.2/300; mild glutaraldehyde cross-linking; single-particle cryo-EM, overall 2.8 Å (Ume1 only at more than 8 Å); both purified
[1] = biological target: Sin3 (S. cerevisiae) (UniProt P22579)
[2] = biological target: T1, Rpd3 (S. cerevisiae) (UniProt P32561)
T1 sequence: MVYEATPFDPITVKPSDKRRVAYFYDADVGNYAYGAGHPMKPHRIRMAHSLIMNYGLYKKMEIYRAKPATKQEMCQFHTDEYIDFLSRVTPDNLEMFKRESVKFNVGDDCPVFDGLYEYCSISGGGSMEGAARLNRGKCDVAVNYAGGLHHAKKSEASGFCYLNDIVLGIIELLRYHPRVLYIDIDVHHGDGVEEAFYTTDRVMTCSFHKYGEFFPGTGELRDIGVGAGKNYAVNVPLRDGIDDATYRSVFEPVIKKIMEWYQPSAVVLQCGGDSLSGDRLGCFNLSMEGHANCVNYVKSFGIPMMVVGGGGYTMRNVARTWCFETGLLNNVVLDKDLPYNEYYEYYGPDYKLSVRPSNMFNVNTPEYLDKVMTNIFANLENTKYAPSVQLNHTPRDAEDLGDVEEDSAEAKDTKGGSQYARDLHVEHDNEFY

[3] = biological target: Eaf3 (S. cerevisiae) (UniProt Q12432)

binding [1]: binds
binding [2]: binds
binding [3]: binds
B1: Rco1 (protein, UniProt Q04779 1-684)
chain: MDTSKKDTTRSPSHSNSSSPSSSSLSSSSSKEKKRPKRLSSQNVNYDLKRRKIITSEGIERSFKNEHSNLAVEDNIPEEEPKELLEKDSKGNIIKLNEPSTISEDSKVSVTGLPLNKGPSEKIKRESLWNYRKNLGGQSNNSEMTLVPSKRFTQVPKNFQDLNRNDLKTFLTENMTEESNIRSTIGWNGDIINRTRDREPESDRDNKKLSNIRTKIILSTNATYDSKSKLFGQNSIKSTSNASEKIFRDKNNSTIDFENEDFCSACNQSGSFLCCDTCPKSFHFLCLDPPIDPNNLPKGDWHCNECKFKIFINNSMATLKKIESNFIKQNNNVKIFAKLLFNIDSHNPKQFQLPNYIKETFPAVKTGSRGQYSDENDKIPLTDRQLFNTSYGQSITKLDSYNPDTHIDSNSGKFLICYKCNQTRLGSWSHPENSRLIMTCDYCQTPWHLDCVPRASFKNLGSKWKCPLHSPTKVYKKIHHCQEDNSVNYKVWKKQRLINKKNQLYYEPLQKIGYQNNGNIQIIPTTSHTDYDFNQDFKITQIDENSIKYDFFDKIYKSKMVQKRKLFQFQESLIDKLVSNGSQNGNSEDNMVKDIASLIYFQVSNNDKSSNNKSASKSNNLRKLWDLKELTNVVVPNELDSIQFNDFSSDEIKHLLYLKKIIESKPKEELLKFLNIENPENQSE
